Laboratory results as given in US20220119459A1 (OXFORD UNIVERSITY INNOVATION, published 2022).
These are yes or no findings as the source states them, for the method shown. Some entries that bind do so weakly or less than the wild type.

Biological target: AP-SpyTag002-MBP
Assay: reaction rate by SDS-PAGE with Coomassie staining (FIG. 16)

B1: SpyCatcher variant of SEQ ID NO: 2 (SEQ ID NO: 47 with threonine at position 5) (designed binder)
chain: GAMVTTLSGLSGEQGPSGDMTTEEDSATHIKFSKRDEDGRELAGATMELRDSSGKTISTWISDGHVKDFYLYPGKYTFVETAAPDGYEVATPITFTVNEDGQVTVNGEATKGDAHT
  binding: binds
